The supplement of paper PMC10849652
The list shows a part of the results.

By UniProt entry, the sequences of proteins in these tests, tags left out. Where a name states a change or a piece, a line headed by the entry shows the natural chain unless it says otherwise.
UniProt Q9UK23: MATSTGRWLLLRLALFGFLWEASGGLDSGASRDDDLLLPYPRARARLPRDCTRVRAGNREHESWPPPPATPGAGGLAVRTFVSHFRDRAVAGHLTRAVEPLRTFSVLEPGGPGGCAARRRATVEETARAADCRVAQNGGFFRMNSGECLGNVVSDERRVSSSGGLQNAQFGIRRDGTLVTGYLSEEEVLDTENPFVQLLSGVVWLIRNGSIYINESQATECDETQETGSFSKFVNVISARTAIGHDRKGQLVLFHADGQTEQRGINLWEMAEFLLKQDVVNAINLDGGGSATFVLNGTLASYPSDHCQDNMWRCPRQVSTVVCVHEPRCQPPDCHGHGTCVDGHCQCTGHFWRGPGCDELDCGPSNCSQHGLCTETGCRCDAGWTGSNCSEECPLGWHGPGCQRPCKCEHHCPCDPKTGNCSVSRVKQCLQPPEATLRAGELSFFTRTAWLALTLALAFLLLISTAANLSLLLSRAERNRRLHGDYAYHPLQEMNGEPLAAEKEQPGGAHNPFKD
UniProt O75438, whole entry, looked up: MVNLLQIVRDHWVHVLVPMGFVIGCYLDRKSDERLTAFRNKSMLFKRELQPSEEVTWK
UniProt Q9UGV2: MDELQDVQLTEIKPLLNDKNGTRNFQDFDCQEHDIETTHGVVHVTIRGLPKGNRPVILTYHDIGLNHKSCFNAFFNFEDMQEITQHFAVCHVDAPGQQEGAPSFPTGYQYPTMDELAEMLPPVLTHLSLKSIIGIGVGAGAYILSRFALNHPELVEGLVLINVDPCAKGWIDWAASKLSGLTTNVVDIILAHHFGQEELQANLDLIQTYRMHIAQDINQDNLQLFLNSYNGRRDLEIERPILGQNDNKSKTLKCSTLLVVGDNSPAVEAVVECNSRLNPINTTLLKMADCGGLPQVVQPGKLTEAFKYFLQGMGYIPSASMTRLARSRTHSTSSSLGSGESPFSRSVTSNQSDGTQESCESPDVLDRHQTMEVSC
UniProt Q7L592: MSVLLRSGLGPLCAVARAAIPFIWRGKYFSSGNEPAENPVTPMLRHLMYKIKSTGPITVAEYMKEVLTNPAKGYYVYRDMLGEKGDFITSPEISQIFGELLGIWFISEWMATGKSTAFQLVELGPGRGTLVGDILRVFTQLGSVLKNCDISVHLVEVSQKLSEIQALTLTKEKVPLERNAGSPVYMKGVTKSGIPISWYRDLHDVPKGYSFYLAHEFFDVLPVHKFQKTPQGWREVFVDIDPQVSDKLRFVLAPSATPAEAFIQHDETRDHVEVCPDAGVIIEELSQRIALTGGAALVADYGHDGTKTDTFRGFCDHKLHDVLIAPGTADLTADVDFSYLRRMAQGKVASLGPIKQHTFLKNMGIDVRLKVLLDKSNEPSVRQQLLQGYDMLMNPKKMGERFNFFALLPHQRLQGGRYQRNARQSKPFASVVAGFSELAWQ
UniProt O43776: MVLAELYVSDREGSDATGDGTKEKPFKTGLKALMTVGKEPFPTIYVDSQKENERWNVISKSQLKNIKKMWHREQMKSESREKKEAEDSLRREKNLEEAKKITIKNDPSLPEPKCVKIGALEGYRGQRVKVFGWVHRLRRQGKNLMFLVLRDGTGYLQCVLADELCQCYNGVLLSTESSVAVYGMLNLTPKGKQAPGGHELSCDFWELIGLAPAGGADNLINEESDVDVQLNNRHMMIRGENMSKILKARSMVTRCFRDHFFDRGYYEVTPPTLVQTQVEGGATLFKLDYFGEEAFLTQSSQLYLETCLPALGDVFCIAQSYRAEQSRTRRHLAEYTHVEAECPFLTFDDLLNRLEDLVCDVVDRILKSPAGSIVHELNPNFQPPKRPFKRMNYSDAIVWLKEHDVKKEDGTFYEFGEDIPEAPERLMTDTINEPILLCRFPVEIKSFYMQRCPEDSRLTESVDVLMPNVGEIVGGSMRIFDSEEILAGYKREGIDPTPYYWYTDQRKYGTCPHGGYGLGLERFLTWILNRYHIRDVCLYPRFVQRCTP
UniProt Q99747: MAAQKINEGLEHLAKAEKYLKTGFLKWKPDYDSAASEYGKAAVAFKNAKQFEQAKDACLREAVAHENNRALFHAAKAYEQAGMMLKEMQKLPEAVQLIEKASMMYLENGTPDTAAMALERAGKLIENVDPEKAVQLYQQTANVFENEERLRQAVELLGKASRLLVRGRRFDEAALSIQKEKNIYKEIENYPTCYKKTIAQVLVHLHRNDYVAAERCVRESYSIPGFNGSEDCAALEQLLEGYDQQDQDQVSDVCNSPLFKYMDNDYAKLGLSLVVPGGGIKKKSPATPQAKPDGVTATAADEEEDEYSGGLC
UniProt Q4G0N4: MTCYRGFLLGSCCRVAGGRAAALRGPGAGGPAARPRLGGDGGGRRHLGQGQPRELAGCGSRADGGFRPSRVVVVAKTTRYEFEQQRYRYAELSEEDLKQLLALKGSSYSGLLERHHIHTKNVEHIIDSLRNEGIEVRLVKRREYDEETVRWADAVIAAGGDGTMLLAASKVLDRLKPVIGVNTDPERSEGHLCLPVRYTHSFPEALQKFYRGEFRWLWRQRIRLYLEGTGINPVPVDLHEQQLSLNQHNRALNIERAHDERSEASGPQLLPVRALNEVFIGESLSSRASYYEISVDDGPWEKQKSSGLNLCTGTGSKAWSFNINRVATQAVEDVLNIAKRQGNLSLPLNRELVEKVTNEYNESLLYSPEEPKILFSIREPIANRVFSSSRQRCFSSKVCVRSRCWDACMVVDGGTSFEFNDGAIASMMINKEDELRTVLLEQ
UniProt Q69YL0: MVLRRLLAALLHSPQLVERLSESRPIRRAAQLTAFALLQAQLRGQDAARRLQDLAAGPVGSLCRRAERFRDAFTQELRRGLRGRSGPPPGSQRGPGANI
UniProt Q9H0A0: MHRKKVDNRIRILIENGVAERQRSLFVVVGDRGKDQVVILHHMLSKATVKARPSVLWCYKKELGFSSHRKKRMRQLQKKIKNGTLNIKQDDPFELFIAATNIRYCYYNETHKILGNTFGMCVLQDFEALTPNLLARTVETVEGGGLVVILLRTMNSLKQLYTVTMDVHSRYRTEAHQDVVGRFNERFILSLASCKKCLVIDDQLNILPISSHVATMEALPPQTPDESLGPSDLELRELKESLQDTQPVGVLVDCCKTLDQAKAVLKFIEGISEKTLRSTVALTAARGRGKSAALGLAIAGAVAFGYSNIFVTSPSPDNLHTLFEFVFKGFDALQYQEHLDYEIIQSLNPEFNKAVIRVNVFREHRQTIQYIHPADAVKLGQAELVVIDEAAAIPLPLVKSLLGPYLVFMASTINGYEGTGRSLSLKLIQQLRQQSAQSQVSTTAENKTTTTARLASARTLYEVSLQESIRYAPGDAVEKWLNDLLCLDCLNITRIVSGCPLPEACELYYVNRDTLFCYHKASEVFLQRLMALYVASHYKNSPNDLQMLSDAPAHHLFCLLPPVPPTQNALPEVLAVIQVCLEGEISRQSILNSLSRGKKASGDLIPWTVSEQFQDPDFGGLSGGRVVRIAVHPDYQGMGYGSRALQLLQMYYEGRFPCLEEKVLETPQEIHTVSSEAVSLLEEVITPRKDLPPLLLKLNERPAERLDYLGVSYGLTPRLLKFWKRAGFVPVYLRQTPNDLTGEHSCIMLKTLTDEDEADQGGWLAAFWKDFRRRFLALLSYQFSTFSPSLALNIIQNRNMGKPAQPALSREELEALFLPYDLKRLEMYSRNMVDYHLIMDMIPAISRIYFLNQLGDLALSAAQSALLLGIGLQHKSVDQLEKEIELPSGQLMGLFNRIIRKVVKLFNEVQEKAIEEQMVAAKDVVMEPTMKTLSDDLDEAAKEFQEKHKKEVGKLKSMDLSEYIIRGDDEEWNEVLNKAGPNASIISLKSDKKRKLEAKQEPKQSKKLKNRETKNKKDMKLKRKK
UniProt Q9HCH0: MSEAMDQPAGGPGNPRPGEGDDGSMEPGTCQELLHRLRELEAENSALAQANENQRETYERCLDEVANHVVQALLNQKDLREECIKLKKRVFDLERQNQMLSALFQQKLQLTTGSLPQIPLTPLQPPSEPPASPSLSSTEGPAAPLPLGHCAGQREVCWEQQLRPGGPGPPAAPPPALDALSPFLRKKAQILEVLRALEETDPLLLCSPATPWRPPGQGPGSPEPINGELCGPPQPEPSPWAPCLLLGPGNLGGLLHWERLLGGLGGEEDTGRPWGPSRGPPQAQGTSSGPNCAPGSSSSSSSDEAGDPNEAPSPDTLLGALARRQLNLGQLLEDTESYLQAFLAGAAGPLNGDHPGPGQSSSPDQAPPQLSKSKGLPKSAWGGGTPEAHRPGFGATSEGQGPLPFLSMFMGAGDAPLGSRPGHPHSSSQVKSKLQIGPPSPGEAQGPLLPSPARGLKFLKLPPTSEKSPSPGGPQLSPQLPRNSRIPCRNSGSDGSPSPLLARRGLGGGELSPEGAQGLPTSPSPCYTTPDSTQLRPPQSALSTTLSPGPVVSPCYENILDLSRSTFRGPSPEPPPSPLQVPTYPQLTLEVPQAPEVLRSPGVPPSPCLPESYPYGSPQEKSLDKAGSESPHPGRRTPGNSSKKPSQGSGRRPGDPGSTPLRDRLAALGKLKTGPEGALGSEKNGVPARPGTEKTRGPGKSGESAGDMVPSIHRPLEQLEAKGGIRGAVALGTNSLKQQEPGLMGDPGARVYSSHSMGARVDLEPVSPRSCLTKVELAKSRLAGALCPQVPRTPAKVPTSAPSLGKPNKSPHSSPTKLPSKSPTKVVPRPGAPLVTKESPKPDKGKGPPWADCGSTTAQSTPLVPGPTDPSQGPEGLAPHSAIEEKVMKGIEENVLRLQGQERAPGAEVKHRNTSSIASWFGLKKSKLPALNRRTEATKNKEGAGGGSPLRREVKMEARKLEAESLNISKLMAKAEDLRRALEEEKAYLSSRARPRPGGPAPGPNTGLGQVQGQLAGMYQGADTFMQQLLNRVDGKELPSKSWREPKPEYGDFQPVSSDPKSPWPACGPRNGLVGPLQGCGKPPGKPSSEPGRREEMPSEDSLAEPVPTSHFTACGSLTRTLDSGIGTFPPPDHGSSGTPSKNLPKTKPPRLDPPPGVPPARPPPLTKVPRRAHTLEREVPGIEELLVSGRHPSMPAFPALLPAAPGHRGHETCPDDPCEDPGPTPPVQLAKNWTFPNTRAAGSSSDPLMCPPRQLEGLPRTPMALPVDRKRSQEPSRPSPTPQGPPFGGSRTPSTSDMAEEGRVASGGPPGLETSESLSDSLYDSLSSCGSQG
UniProt Q9NV92: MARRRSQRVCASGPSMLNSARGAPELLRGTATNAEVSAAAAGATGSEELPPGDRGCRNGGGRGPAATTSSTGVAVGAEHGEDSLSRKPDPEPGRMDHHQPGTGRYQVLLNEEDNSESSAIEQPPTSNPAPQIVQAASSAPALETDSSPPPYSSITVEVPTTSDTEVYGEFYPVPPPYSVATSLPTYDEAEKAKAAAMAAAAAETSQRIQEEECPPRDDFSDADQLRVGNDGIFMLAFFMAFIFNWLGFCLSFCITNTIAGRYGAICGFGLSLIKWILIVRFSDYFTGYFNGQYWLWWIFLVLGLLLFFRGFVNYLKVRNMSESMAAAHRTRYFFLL
UniProt Q92597: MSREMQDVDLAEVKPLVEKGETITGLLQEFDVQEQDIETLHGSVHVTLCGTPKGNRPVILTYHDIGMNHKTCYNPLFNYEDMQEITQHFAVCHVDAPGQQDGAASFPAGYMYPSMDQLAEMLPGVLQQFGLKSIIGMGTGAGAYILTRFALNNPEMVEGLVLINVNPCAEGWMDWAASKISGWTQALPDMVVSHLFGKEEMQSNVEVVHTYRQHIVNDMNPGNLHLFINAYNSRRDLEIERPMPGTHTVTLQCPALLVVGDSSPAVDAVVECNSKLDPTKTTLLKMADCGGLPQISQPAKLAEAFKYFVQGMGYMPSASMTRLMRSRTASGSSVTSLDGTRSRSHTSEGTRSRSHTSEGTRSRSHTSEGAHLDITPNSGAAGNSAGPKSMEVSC
UniProt Q13772: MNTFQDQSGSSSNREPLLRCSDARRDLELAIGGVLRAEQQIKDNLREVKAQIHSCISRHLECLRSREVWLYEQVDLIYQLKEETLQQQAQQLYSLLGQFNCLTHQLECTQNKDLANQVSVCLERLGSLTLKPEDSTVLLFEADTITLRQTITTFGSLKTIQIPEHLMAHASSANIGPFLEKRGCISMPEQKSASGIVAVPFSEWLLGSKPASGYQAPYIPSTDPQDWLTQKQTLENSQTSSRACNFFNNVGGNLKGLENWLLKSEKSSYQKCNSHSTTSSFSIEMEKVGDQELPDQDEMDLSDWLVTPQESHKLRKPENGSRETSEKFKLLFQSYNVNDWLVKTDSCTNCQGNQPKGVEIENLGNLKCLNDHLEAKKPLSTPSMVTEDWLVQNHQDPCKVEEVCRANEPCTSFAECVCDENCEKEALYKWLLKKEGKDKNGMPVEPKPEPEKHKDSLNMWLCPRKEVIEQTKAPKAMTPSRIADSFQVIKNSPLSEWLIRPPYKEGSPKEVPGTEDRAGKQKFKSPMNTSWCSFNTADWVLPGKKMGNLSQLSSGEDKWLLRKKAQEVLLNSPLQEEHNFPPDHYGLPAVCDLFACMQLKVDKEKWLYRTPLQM
UniProt O43677, whole entry, looked up: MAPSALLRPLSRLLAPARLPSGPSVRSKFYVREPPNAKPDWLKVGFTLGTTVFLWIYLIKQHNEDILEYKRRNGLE

Experiments:
Assay in all cases: log2 fold change, soluble protein after heating vs DMSO (PISA); higher = thermal stabilisation; K562 cells, 10 uM, 30 min; active = over 0.2 and 3.5 SD of the protein, either way, in both replicates (recomputed)
bafetinib = compound: Cc1ccc(NC(=O)c2ccc(CN3CC[C@H](N(C)C)C3)c(C(F)(F)F)c2)cc1Nc1nccc(-c2cncnc2)n1 [bafetinib]
Outline: (§1)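 Quantification of soluble protein used TMTpro 16plex LC-MS/MS, with channel sums equalised. Samples were the supernatant after 21,000xg for 90 min of pooled aliquots from K562 cells (2×10^6 cells/mL) treated with 10 μM compound for 30 min, heated for 3 min over 48°C-58°C, and extracted in PBS with 0.5% NP-40 at 4°C. Values, from duplicates, describe thermal stability against control samples on a log2 fold-change scale.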

[1] = compound: Cc1cccc(CC(=O)N2CCc3c2ccc(-c2cn(C)c4ncnc(N)c24)c3F)n1
Outline: as §1

nilotinib = compound: Cc1cn(-c2cc(NC(=O)c3ccc(C)c(Nc4nccc(-c5cccnc5)n4)c3)cc(C(F)(F)F)c2)cn1 [nilotinib]
Outline: as §1

[2] = compound: Cc1nc(Nc2n[nH]c3c2CN(C(=O)N[C@H](CN(C)C)c2ccccc2)C3(C)C)c2sccc2n1
Outline: as §1

dasatinib = compound: Cc1nc(Nc2ncc(C(=O)Nc3c(C)cccc3Cl)s2)cc(N2CCN(CCO)CC2)n1 [dasatinib]
Outline: as §1

[3] = compound: Cc1ncc(-c2ccnc(Nc3ccc(S(C)(=O)=O)cc3)n2)n1C(C)C
Outline: as §1

[4] = compound: Cn1cc(-c2ccc3c(c2)CCN3C(=O)Cc2cccc(C(F)(F)F)c2)c2c(N)ncnc21
Outline: as §1

tipifarnib = compound: Cn1cncc1[C@@](N)(c1ccc(Cl)cc1)c1ccc2c(c1)c(-c1cccc(Cl)c1)cc(=O)n2C [tipifarnib]
Outline: as §1

mubritinib = compound: FC(F)(F)c1ccc(/C=C/c2nc(COc3ccc(CCCCn4ccnn4)cc3)co2)cc1 [mubritinib]
Outline: as §1

[5] = compound: Cn1cc(-c2ccc3nnc(C(F)(F)c4ccc5ncccc5c4)n3n2)cn1
Outline: as §1

Target | log2 fold change (bafetinib) | log2 fold change [1] | log2 fold change (nilotinib) | log2 fold change [2] | log2 fold change (dasatinib) | log2 fold change [3] | log2 fold change [4] | log2 fold change (tipifarnib) | log2 fold change (mubritinib) | log2 fold change [5]
NAGPA (UniProt Q9UK23) | inactive: -0.076 | inactive: -0.142 | inactive: -0.082 | inactive: 0 | inactive: 0.053 | inactive: 0.014 | inactive: 0.023 | inactive: 0.245 | inactive: -0.091 | 
NDFIP1 (UniProt Q9BT67) | inactive: -0.137 | inactive: -0.08 | inactive: -0.214 | inactive: 0.354 | inactive: 0.039 | inactive: 0.225 | inactive: -0.038 |  | inactive: -0.024 | inactive: -0.072
NDUFB1 (UniProt O75438) | inactive: -0.116 | inactive: 0.028 | inactive: 0.095 | inactive: 0.009 |  | inactive: -0.028 | inactive: 0.004 | inactive: 0.038 | inactive: 0.022 | 
NDUFB10 (UniProt O96000) | inactive: -0.105 | inactive: -0.11 | inactive: -0.02 | inactive: 0.026 | inactive: -0.011 | inactive: -0.021 | inactive: 0.015 | inactive: 0.044 | inactive: 0.019 | inactive: 0.081
NANP (UniProt Q8TBE9) | inactive: 0.11 | inactive: -0.09 | inactive: -0.009 | inactive: 0.006 | inactive: -0.016 | inactive: 0.141 | inactive: 0.03 | inactive: -0.155 | inactive: 0.154 | 
NDUFA5 (UniProt Q16718) | inactive: -0.106 | inactive: -0.005 | inactive: 0.02 | inactive: -0.017 | inactive: 0.014 | inactive: -0.064 | inactive: 0.138 | inactive: -0.099 | inactive: 0.085 | inactive: 0.246
NDRG3 (UniProt Q9UGV2) | inactive: 0.028 | inactive: 0.004 | inactive: 0.009 | inactive: -0.005 | inactive: -0.038 | inactive: 0.016 | inactive: 0.015 | inactive: -0.025 | inactive: 0.039 | inactive: 0.014
NECTIN2 isoform 2 (UniProt Q92692) | inactive: -0.64 | inactive: 0.145 | inactive: 0.129 | inactive: -0.016 | inactive: 0.001 | inactive: 0.006 |  |  | inactive: -0.049 | inactive: -0.129
NA, A0A494C071 | active: -1.12 | inactive: -0.057 | inactive: 0.074 | inactive: 0.329 | inactive: 0.029 | inactive: -0.439 | inactive: 0.001 |  | inactive: 0.094 | 
NDUFAF7 (UniProt Q7L592) | inactive: 0.001 | inactive: 0.05 | inactive: -0.012 | inactive: -0.023 |  | inactive: -0.02 | inactive: 0.203 | inactive: -0.08 | inactive: -0.105 | inactive: 0.02
NARS1 (UniProt O43776) | inactive: 0 | inactive: -0.035 | inactive: 0.011 | inactive: 0.004 | inactive: 0.044 | inactive: 0.001 | inactive: -0.007 | inactive: 0.033 | inactive: 0.009 | inactive: 0.011
NAPG (UniProt Q99747) | inactive: 0 | inactive: 0.128 | inactive: -0.057 | inactive: -0.157 | inactive: -0.133 | inactive: -0.011 | inactive: 0.034 | inactive: -0.094 | inactive: 0.062 | inactive: 0.033
NADK2 (UniProt Q4G0N4) | inactive: -0.107 | inactive: -0.012 | inactive: 0.011 | inactive: 0.003 | inactive: 0.028 | inactive: -0.01 | inactive: 0.006 | inactive: 0.018 | inactive: 0.007 | inactive: 0.011
NBN (UniProt O60934) | inactive: -0.021 | inactive: 0.031 | inactive: 0.018 | inactive: -0.198 | inactive: -0.171 | inactive: 0.048 | inactive: 0.031 | inactive: -0.016 | inactive: 0.131 | inactive: 0.064
NCBP2AS2 (UniProt Q69YL0) | active: -0.504 | inactive: -0.018 | inactive: 0 | inactive: 0.045 | inactive: -0.021 | inactive: 0.031 | inactive: 0.002 | inactive: -0.001 | inactive: 0.006 | inactive: 0.021
NAT10 (UniProt Q9H0A0) | inactive: 0.135 | inactive: 0 | inactive: -0.233 | inactive: 0.023 | inactive: 0.009 | inactive: 0.103 | inactive: -0.153 | inactive: -0.003 | inactive: -0.196 | inactive: -0.005
NCOA3 (UniProt Q9Y6Q9) | inactive: -0.129 | inactive: 0.035 | inactive: 0.049 | inactive: 0.075 |  | inactive: -0.213 | inactive: 0.013 | inactive: 0.122 |  | inactive: 0.177
N4BP1 (UniProt O75113) | inactive: -0.028 | inactive: -0.242 | inactive: 0.017 | inactive: -0.232 | inactive: 0.054 | inactive: 0.156 | inactive: 0.132 | inactive: 0.145 | inactive: -0.052 | inactive: -0.069

Target | log2 fold change (bafetinib) | log2 fold change [1] | log2 fold change (nilotinib) | log2 fold change [2] | log2 fold change (dasatinib) | log2 fold change [3] | log2 fold change [4] | log2 fold change (tipifarnib) | log2 fold change (mubritinib) | log2 fold change [5]
NCKAP5L (UniProt Q9HCH0) |  |  |  |  | inactive: -0.069 |  |  | inactive: -0.21 | inactive: 0.25 | inactive: 0.092
NDFIP2 (UniProt Q9NV92) |  |  |  |  |  |  |  | inactive: 0.348 | inactive: -0.231 | inactive: -0.106
NA isoform 3 (UniProt Q4G0T1) | inactive: -0.198 |  | inactive: -0.021 | inactive: -0.009 | inactive: -0.093 | inactive: 0.01 | inactive: -0.065 | inactive: -0.066 | inactive: -0.066 | inactive: 0.059
NABP2 (UniProt Q9BQ15) |  |  |  |  | inactive: -0.077 |  |  |  |  | 
NAV1 (UniProt Q8NEY1) |  | inactive: 0.034 | inactive: 0.009 | inactive: -0.236 | inactive: -0.115 | inactive: 0.065 | inactive: -0.08 | inactive: 0.13 | inactive: -0.239 | inactive: -0.096
NCCRP1 (UniProt Q6ZVX7) |  |  |  |  | inactive: -0.542 |  |  |  | inactive: -0.321 | 
NDST2 (UniProt P52849) | inactive: -0.019 |  | inactive: 0.104 | inactive: 0.101 |  | inactive: -0.027 |  |  | inactive: 0.022 | inactive: -0.172
NACA4P (UniProt Q9BZK3) | inactive: 0.048 |  | inactive: 0.094 | inactive: 0.082 | inactive: -0.042 | inactive: 0 | inactive: -0.083 |  | inactive: 0.046 | inactive: -0.111
NDRG1 (UniProt Q92597) |  |  |  |  |  |  |  | inactive: -0.193 |  | 
MYSM1 (UniProt Q5VVJ2) | inactive: -0.138 |  |  |  |  |  |  |  |  | inactive: 0.18
NAMPT (UniProt C9JF35) | inactive: -0.029 |  | inactive: -0.237 | inactive: -0.263 | inactive: -0.026 | inactive: -0.051 | inactive: 0.037 | inactive: 0.088 | inactive: 0.13 | inactive: 0.139
NAIP (UniProt Q13075) |  |  |  |  |  |  |  | inactive: 0.212 |  | inactive: 0.301
NCOA4 isoform 4 (UniProt Q13772) |  | inactive: 0.006 |  |  |  |  | inactive: -0.029 |  |  | inactive: -0.032
NAA40 (UniProt Q86UY6) |  | inactive: -0.084 |  |  |  |  | inactive: -0.22 |  |  | inactive: -0.158
NA, A0A1W2PSA9 |  | inactive: 0.022 |  |  | inactive: 0.289 |  | inactive: 0.218 |  |  | inactive: -0.118
NDUFC1 (UniProt O43677) |  |  |  |  |  |  | inactive: 0.009 |  |  | 
NCK1 (UniProt P16333) | inactive: 0.062 |  | inactive: -0.069 | inactive: -0.421 | inactive: -0.138 | inactive: 0.046 | inactive: -0.086 | inactive: 0.008 | inactive: -0.058 | inactive: -0.044

Part of the list above, reformatted.
Target	log2 fold change (bafetinib)	log2 fold change [1]	log2 fold change (nilotinib)	log2 fold change [2]	log2 fold change (dasatinib)	log2 fold change [3]	log2 fold change [4]	log2 fold change (tipifarnib)	log2 fold change (mubritinib)	log2 fold change [5]
NA isoform 3 (UniProt Q4G0T1)	inactive: -0.198		inactive: -0.021	inactive: -0.009	inactive: -0.093	inactive: 0.01	inactive: -0.065	inactive: -0.066	inactive: -0.066	inactive: 0.059
NABP2 (UniProt Q9BQ15)					inactive: -0.077					
